# Results are given in words; binding and its absence hold for the method and conditions named. In cells and extracts the contact can be indirect. Here binding means that the protein was enriched with, or labelled near, the bait; the list need not be complete. Tags and fused reporters may be left off the sequences shown.
# Chains of the proteins cited; added tags and fusions are not shown. Lines headed by an entry give the natural chain unless they say otherwise; changes in a name come on top.
# UniProt Q9UL25: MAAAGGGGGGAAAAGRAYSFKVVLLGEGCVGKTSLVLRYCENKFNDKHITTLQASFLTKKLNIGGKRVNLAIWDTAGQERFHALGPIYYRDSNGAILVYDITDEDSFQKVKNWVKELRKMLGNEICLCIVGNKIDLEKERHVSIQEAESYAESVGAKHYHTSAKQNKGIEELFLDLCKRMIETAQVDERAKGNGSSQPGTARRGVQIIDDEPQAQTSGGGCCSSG
# UniProt P14780: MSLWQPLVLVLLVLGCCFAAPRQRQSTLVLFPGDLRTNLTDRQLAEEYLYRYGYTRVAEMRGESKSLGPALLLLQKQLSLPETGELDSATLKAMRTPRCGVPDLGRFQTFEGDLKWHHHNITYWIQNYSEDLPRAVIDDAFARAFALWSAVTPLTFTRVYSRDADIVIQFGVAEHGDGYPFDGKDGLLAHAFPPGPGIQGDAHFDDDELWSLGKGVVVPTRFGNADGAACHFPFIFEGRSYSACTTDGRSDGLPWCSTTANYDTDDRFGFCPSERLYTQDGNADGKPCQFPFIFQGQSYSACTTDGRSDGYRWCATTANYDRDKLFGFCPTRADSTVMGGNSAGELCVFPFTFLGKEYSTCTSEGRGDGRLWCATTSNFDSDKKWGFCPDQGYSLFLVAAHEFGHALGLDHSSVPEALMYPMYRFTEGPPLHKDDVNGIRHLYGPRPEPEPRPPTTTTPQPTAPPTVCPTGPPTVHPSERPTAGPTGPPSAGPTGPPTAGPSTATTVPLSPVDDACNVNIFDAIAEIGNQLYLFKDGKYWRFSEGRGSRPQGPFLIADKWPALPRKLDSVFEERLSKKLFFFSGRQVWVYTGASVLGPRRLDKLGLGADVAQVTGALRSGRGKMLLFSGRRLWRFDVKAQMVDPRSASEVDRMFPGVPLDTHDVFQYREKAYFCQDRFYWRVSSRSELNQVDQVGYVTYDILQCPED
# UniProt P61026: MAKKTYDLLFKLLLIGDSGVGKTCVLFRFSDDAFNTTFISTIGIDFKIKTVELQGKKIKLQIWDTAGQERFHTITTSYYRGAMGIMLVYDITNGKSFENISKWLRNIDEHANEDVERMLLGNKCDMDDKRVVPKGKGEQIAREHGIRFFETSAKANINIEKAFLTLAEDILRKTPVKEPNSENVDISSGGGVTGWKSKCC
# UniProt P61006: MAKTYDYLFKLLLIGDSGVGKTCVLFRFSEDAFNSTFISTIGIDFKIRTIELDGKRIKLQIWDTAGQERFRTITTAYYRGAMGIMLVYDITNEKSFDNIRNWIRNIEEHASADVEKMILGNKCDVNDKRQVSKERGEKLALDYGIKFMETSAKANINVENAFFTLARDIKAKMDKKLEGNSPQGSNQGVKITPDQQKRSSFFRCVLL
# UniProt P61960: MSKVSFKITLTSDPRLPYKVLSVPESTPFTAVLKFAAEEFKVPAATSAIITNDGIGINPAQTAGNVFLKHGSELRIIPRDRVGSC
# T1: EGFP-C9ORF72 fusion protein (human (endogenous in hiPSC-MG)) (UniProt Q96LT7)
# T1 sequence: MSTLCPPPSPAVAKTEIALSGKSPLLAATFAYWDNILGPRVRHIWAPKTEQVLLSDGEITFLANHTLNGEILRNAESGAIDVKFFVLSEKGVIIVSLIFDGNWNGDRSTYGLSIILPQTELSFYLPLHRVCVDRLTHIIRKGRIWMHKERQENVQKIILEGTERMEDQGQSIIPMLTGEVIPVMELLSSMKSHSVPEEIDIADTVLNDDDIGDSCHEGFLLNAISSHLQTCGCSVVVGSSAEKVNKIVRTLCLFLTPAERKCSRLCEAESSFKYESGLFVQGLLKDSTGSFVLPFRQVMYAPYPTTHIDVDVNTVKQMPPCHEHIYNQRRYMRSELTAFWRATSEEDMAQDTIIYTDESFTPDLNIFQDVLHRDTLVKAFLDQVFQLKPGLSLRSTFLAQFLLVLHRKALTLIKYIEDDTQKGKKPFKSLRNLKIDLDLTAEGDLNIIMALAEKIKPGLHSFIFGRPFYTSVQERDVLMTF
# Biological target: T1, EGFP-C9ORF72 fusion protein (human (endogenous in hiPSC-MG))
# Assay: affinity purification with mass spectrometry; GFP-Trap beads (Chromotek) on 350 ug lysate of EGFP-C9ORF72 hiPSC-MG against ctrl-MG, 4°C, 90 min; lysis buffer 20 mM Hepes pH 7.5, 150 mM NaCl, 5 mM MgCl2, 10% glycerol, 0.5% NP-40, 100 nM GTPgS; on-bead tryptic digestion, 8-plex TMT, LC-MS/MS; >2.0-fold enrichment, 1% FDR
row,Molecule,binding
1,RAB21 (from UniProt Q9UL25 1-225),binds
2,MMP9 (from UniProt P14780),binds
3,RAB39Ab (human (endogenous in hiPSC-MG)),binds
4,RAB10 (from UniProt P61026 1-200),binds
5,RAB8A (from UniProt P61006 1-207),binds
6,RAB5 (human (endogenous in hiPSC-MG)),binds
7,UFM 1 (ubiquitin fold modifier 1) (from UniProt P61960 1-85),binds
8,"RAB13 (protein, UniProt P51153 1-203) MAKAYDHLFKLLLIGDSGVGKTCLIIRFAEDNFNNTYISTIGIDFKIRTVDIEGKKIKLQVWDTAGQERFKTITTAYYRGAMGIILVYDITDEKSFENIQNWMKSIKENASAGVERLLLGNKCDMEAKRKVQKEQADKLAREHGIRFFETSAKSSMNVDEAFSSLARDILLKSGGRRSGNGNKPPSTDLKTCDKKNTNKCSLG",binds
9,"RAB 34 (protein, UniProt Q9BZG1 1-259) MNILAPVRRDRVLAELPQCLRKEAALHGHKDFHPRVTCACQEHRTGTVGFKISKVIVVGDLSVGKTCLINRFCKDTFDKNYKATIGVDFEMERFEVLGIPFSLQLWDTAGQERFKCIASTYYRGAQAIIIVFNLNDVASLEHTKQWLADALKENDPSSVLLFLVGSKKDLSTPAQYALMEKDALQVAQEMKAEYWAVSSLTGENVREFFFRVAALTFEANVLAELEKSGARRIGDVVRINSDDSNLYLTASKKKPTCCP",binds
